# The other results are listed elsewhere or left out. These are further read-outs of the screen, such as a control signal, another cell line or another target. No call is given for them. Potencies come from curve fits of mixed quality, noted in brackets.
# Biological target: Caspase-1 (Homo sapiens) (UniProt P29466)
# Experiment: Concentration-Response Counterscreen for Redox Active Inhibitors of Caspase-1: Summary
# Settings: caspase-1 enzyme activity, redox counterscreen (DTT/Cys/catalase)
# Text: NIH Molecular Libraries Screening Centers Network [MLSCN]
# NIH Chemical Genomics Center [NCGC]
# PI Name: Dr. James Wells,
# Dr. Enrique Perez-Paya, Dr.Janice Williams, Dr. Dennis Wolan, a person
# The caspases (Cysteine Aspartyl Protease) comprise a related family of 14 dimeric proteases that are critical mediators of apoptosis (programmed cell death) and inflammation. The caspases represent an important class of drug targets for stroke, ischemia, cancer and inflammatory diseases. […] One goal of this project was to identify compounds that act as allosteric inhibitors via stabilizing the procaspase form of the enzyme. Previous work in Well's laboratory has shown that such allosteric inhibitors can be identified and these act by binding at the dimer interface of enzyme (Hardy, Lam et al., 2004).
# The biochemical assay was configured using purified caspase 1 at a high enzyme concentration to promote formation of the homodimers and thus facilitate the identification of allosteric inhibitors. The overall goal was to identify reversible inhibitors with better drug-like properties than the currently available set of aspartyl-containing peptidomimetics that covalently bind the active site. Caspase 1 was assayed using the profluorescent substrate Ac-WEHD-AFC. After initiation of the assay with substrate the plates were rapidly read using an automated robotic system (Kalypsys, Inc.) to maintain consistent timing. A kinetic mode of detection was used where the initial rate was collected (estimated final product formation was ~10%). Product formation was also measured after 1 hour. Compounds were screened as a concentration-titration series that ranged from 57 uM to 0.7 nM.
# Compounds that generate reactive oxygen species can lead to high hit rates in HTS biochemical assays. This mechanism was cited by Smith et al. (2002) as the main artifact responsible for >85% of the hits in an HTS against caspase 8. We identified a series of putative inhibitors in an enzymatic screen of caspase 1 and we performed two assays to test if these compounds operated by such a redox-active mechanism. Based on the published work, compounds that appear active due to a redox-active mechanism will show shifts in inhibition potency when the redox potential of the buffer is changed. Compounds that show a change in IC50 upon switching the buffer system from DTT to cysteine or DTT and the enzyme catalase are suspected to be redox active compounds.
# NCGC Assay Protocol Summary:
# Caspase 1 was prepared in buffer (50 mM HEPES pH 7.5, 50 mM KCl, 200 mM NaCl, 0.1% CHAPS and either 10 mM DTT, 10 mM Cys (Aldrich cat# 861677), or 10mM DTT and 50 units/well catalase (from bovine liver, Sigma cat#100)) at a concentration of 66.6 nM and 3 uL was dispensed to all wells using black solid Kalypsys 1536-well plates. 20 nL of DMSO containing compounds was added using a pin-tool (Kalypsys Inc.) to columns 5-48. Then 20 nL of DMSO solution from a control plate was added to columns 1-4. Controls were: Column 1, 16 point titration with each concentration in duplicate (1:1 dilutions in DMSO; final starting concentration was 57 uM) of the caspase 1 inhibitor Ac-WEHD-CHO (Alexis Biochemicals); Column 2, a 16 point titration with each concentration in duplicate of the free AFC fluorophore prepared in DMSO (Alexis Biochemicals), final starting was 40 uM; Column 3 neutral (DMSO only) control; Column 4: DMSO alone, to serve as a negative control (no substrate was added). Then 1 uL of 20 uM the substrate Ac-WEHD-AFC (Alexis Biochemicals) prepared in the same buffer was dispensed to all wells except columns 2 and 4 and the plates were immediately transferred (< 1 min) to the Viewlux. The plates were then exposed using 405 nm excitation/520 nm emission filters for 4 sec and read at 20 sec intervals for 3 min. Final enzyme concentration was 50 nM and the final substrate concentration was 5 uM.
# […]
# [1] = measured here: with catalase, rate
compound,measurement,setting,value
CC(=O)[C@@H]1[C@@H]2C(=O)N(c3ccc(F)c(Cl)c3)C(=O)[C@@H]2C2c3ccccc3C=CN21 (stereo not given in full),AC50,measured here: DTT 1 h read,"31.6 µM [falling, partial curve]"
same,AC50,measured here: cysteine rate,"15.8 µM [falling, partial curve]"
same,AC50,[1],"31.6 µM [falling, partial curve]"
O=C1NCCCC2c3cc(O)c4ccccc4c3OC12N1CCCCC1 (stereo not given),AC50,measured here: DTT 1 h read,"31.6 µM [falling, partial curve]"
COc1cc2c(Cc3c4c5c(cc(OC)c(OC)c5c5c(OC)c(OC)ccc35)CCN4C)c3c4c(cc(OC)c(OC)c4c2cc1OC)CCN3C,AC50,measured here: DTT 1 h read,"12.6 µM [falling, partial curve]"
same,AC50,measured here: DTT rate,"31.6 µM [falling, partial curve]"
same,AC50,measured here: cysteine rate,"25.1 µM [falling, partial curve]"
[C-]1=CC=CC1.[C-]1=CC=CC1.[Cl-].[Cl-].[Ti+4],AC50,measured here: DTT 1 h read,"15.8 µM [falling, partial curve]"
same,AC50,measured here: DTT rate,"25.1 µM [falling, partial curve]"
same,AC50,measured here: cysteine 1 h read,"20 µM [falling, partial curve, poor fit]"
COc1ccc2c(c1)Cc1sc(NC(=O)c3cccs3)nc1-2,AC50,measured here: DTT 1 h read,"25.1 µM [falling, partial curve]"
same,AC50,[1],"31.6 µM [falling, partial curve]"
O=C1C(SCCO)=C(SCCO)C(=O)c2ccccc21,AC50,measured here: DTT 1 h read,"39.8 µM [falling, partial curve]"
COc1cc(N[C@@H](C)CCCN)c2ncccc2c1,AC50,measured here: DTT 1 h read,"31.6 µM [falling, partial curve, poor fit]"
CCN1C(=O)/C(=C2/Sc3ccccc3N2CCCS(=O)(=O)O)SC1=S,AC50,measured here: DTT rate,"12.6 µM [falling, partial curve]"
same,AC50,measured here: cysteine rate,"15.8 µM [falling, full curve]"
same,AC50,[1],"28.2 µM [falling, partial curve]"
O=C(COC(=O)c1cc(-c2ccco2)nc2ccccc12)NCc1ccc2c(c1)OCO2,AC50,measured here: DTT rate,"25.1 µM [falling, partial curve]"
same,AC50,measured here: cysteine rate,"15.8 µM [falling, full curve]"
same,AC50,[1],"25.1 µM [falling, partial curve]"

# A run of entries from further up, as a working copy:
compound,measurement,setting,value
CCN1C(=O)/C(=C2/Sc3ccccc3N2CCCS(=O)(=O)O)SC1=S,AC50,measured here: DTT rate,"12.6 µM [falling, partial curve]"
same,AC50,measured here: cysteine rate,"15.8 µM [falling, full curve]"

# From PubChem BioAssay AID996 (National Center for Advancing Translational Sciences (NCATS), 2007)
